Article doi:10.1101/2021.08.02.454712
These are yes or no findings as the source states them, for the method shown. Binding seen in cells or lysates may run through a third protein. A yes stands for co-enrichment or nearness to the bait. Other partners may have been found. Where a sequence is shown, tags or fusion partners need not be part of it.

Molecular target: T1, PfHDP-GFP fusion protein (Plasmodium falciparum) (UniProt Q8IL04)
T1 sequence: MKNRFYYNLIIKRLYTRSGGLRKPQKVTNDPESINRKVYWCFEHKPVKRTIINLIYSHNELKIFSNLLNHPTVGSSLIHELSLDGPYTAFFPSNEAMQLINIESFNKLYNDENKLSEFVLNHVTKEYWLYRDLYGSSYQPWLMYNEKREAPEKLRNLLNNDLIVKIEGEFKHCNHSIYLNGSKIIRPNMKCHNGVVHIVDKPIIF
Test: affinity purification with mass spectrometry

Question: With PTEX88, endogenous in P. falciparum as the substance, how does the binding read?
Answer: binds

Question: “Trx2, endogenous in P. falciparum (from UniProt Q8IDP4 24-157)” was tested. Which binding did it give?
Answer: binds

Question: For “falcipain 2, endogenous in P. falciparum (from UniProt Q8I6U4) (enzyme)”, which binding is on record?
Answer: binds
